Assay results: article PMC11358521
No constants are given. Whether binding was seen depends on the method and setting. In cells and extracts the contact can be indirect. Some results given as binding are weak or reduced against the parent protein; the word gives no strength. For some assays here: Tags and fused reporters may be left off the sequences shown. Each block holds one molecule with its values, some of them ahead of it.

Sequences of proteins named here, by UniProt entry; tags and fusion partners are left off.
UniProt Q6ZWX6: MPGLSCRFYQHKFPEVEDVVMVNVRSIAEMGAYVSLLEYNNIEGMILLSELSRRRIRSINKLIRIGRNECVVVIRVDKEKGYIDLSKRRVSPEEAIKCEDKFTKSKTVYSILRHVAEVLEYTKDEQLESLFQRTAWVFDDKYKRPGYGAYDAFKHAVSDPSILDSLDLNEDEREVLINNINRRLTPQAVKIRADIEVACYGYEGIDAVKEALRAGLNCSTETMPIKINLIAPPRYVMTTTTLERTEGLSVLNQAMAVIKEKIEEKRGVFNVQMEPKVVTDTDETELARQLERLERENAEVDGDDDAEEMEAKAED

Experiments:
[1] = biological target: T1, heterogeneous nuclear ribonucleoprotein R (hnRNP R) (mouse (endogenous in primary motoneurons)) (UniProt Q8VHM5); assay: co-IP; anti-hnRNP R antibody on magnetic Dynabeads Protein A or G, whole lysate of primary mouse motoneurons (DIV 7), without or with Benzonase; lysis 10 mM HEPES pH 7.0, 100 mM KCl, 5 mM MgCl2, 0.5% NP-40; overnight at 4 °C; immunoblot
T1 sequence: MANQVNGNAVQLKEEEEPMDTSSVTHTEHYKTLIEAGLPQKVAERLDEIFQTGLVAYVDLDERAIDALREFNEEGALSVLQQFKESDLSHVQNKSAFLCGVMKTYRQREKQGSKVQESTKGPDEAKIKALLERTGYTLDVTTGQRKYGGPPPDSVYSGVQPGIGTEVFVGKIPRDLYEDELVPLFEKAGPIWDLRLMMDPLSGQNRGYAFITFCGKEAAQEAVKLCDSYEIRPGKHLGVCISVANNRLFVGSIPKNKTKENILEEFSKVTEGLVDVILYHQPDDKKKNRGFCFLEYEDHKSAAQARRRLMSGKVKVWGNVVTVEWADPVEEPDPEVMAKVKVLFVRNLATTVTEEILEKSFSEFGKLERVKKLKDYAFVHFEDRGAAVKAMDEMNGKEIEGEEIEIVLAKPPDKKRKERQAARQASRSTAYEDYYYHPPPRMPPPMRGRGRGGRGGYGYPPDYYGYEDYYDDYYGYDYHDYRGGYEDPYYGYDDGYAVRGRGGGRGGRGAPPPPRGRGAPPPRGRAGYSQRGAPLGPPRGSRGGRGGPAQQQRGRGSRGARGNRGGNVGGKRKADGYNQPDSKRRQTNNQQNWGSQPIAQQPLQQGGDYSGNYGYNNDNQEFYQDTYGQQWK

[2] = biological target: T1, heterogeneous nuclear ribonucleoprotein R (hnRNP R) (mouse (endogenous in primary motoneurons)); assay: proximity ligation; Duolink In Situ PLA on fixed, permeabilised cultured mouse motoneurons (Hnrnpr +/+ and -/-; some treated with DMSO, TMG or OSMI-1), pairs of primary antibodies against the two endogenous proteins
[3] = biological target: T1, heterogeneous nuclear ribonucleoprotein R (hnRNP R) (mouse (endogenous in primary motoneurons)); assay: co-IP; anti-hnRNP R immunoprecipitation from axonal lysate of compartmentalised motoneurons, immunoblot for Ogt
[4] = biological target: T1, heterogeneous nuclear ribonucleoprotein R (hnRNP R) (mouse (endogenous in primary motoneurons)); assay: co-IP; anti-hnRNP R immunoprecipitation from somatodendritic lysate of compartmentalised motoneurons, immunoblot for Ogt
[5] = biological target: T1, heterogeneous nuclear ribonucleoprotein R (hnRNP R) (mouse (endogenous in primary motoneurons)); assay: proximity ligation; Duolink In Situ PLA on fixed, permeabilised cultured mouse motoneurons (Hnrnpr +/+ and -/-; some treated with DMSO, TMG or OSMI-1), pairs of primary antibodies against the two endogenous proteins; remark: listed apart in the source

binding [1]: binds
binding [2]: binds
Molecule: eIF2α (from UniProt Q6ZWX6 1-315)

binding [3]: binds
binding [5]: binds
B1: O-linked β-N-acetylglucosamine (O-GlcNAc) transferase (Ogt) (enzyme, UniProt Q8CGY8 1-1046)
chain: MASSVGNVADSTEPTKRMLSFQGLAELAHREYQAGDFEAAERHCMQLWRQEPDNTGVLLLLSSIHFQCRRLDRSAHFSTLAIKQNPLLAEAYSNLGNVYKERGQLQEAIEHYRHALRLKPDFIDGYINLAAALVAAGDMEGAVQAYVSALQYNPDLYCVRSDLGNLLKALGRLEEAKACYLKAIETQPNFAVAWSNLGCVFNAQGEIWLAIHHFEKAVTLDPNFLDAYINLGNVLKEARIFDRAVAAYLRALSLSPNHAVVHGNLACVYYEQGLIDLAIDTYRRAIELQPHFPDAYCNLANALKEKGSVAEAEDCYNTALRLCPTHADSLNNLANIKREQGNIEEAVRLYRKALEVFPEFAAAHSNLASVLQQQGKLQEALMHYKEAIRISPTFADAYSNMGNTLKEMQDVQGALQCYTRAIQINPAFADAHSNLASIHKDSGNIPEAIASYRTALKLKPDFPDAYCNLAHCLQIVCDWTDYDERMKKLVSIVAEQLEKNRLPSVHPHHSMLYPLSHGFRKAIAERHGNLCLDKINVLHKPPYEHPKDLKLSDGRLRVGYVSSDFGNHPTSHLMQSIPGMHNPDKFEVFCYALSPDDGTNFRVKVMAEANHFIDLSQIPCNGKAADRIHQDGIHILVNMNGYTKGARNELFALRPAPIQAMWLGYPGTSGALFMDYIITDQETSPAEVAEQYSEKLAYMPHTFFIGDHANMFPHLKKKAVIDFKSNGHIYDNRIVLNGIDLKAFLDSLPDVKIVKMKCPDGGDNPDSSNTALNMPVIPMNTIAEAVIEMINRGQIQITINGFSISNGLATTQINNKAATGEEVPRTIIVTTRSQYGLPEDAIVYCNFNQLYKIDPSTLQMWANILKRVPNSVLWLLRFPAVGEPNIQQYAQNMGLPQNRIIFSPVAPKEEHVRRGQLADVCLDTPLCNGHTTGMDVLWAGTPMVTMPGETLASRVAASQLTCLGCLELIAKSRQEYEDIAVKLGTDLEYLKKIRGKVWKQRISSPLFNTKQYTMELERLYLQMWEHYAAGNKPDHMIKPVEVTESA
binding [4]: no binding (condition: somatodendritic compartment lysate)
